The text below walks through data of article PMC9239190.

This series addresses T1, AdpA (Streptomyces coelicolor) (UniProt Q9L062).
T1 sequence (looked up, limits assumed): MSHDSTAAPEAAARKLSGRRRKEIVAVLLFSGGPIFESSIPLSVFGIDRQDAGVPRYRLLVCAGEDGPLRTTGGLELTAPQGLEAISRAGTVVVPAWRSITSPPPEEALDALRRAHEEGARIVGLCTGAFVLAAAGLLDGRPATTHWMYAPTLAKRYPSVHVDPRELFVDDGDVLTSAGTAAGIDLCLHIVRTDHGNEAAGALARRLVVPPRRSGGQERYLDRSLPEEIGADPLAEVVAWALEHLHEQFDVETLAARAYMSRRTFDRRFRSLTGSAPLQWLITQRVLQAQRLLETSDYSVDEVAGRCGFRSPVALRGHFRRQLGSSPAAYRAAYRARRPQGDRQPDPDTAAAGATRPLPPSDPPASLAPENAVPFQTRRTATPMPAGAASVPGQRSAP
The series can be described thus: EMSA. Conditions: EMSA: 20 mM Tris-HCl, 2 mM EDTA, 20 mM KCl, 0.5 mM DTT, pH 8.0, 30 C 20 min, 16.5-22 nM probe, recombinant protein, protein details: His tag (pET15b, text says C-terminal), probe letters rebuilt from the primers and the genome.

Construct, isoform or probe ends are uncertain for at least one entry. A weaker result is weaker than the reference pair of the same experiment. Where a protein sequence is shown, tags need not be part of it. At least one verdict was read from the data and is not stated in words by the source.

On to “ACACATCCCGCATCGGTGATTACATGGACACGTCCCAATAAGTTGAATCTCATCTGCGCCCCCGTCGAGATTCTCCGTCTCCTGGGGGCGACAATAACAGGCCTACTCAACAGATTTCAATGTGCTTGCCGTCACAAGCGATCTCCTATTGATCAAAAATTAATCAGTGCAGCGAGCTGCACTGATTAATTTTTGCTGGATTTTACCGAGAGGCAGTGGTCGAGGCTTCCGAATCAATAGAATCTGGCATTCCTGATACGGCTGGGTCC (double strand) [PactII-4 probe]”, for which the binding result runs as follows: (200 uM HSnH) “binds more weakly”; (200 uM S8) “binds more weakly”.

In the case of “CTCATACTGCTAAGCCCCCCTCGGTGGTCGCGGCGCCCTTCACCCTTCGGGTCTGTCGCTCCAACACGTTTCCCCTCGGTCCTGCACGAGTCCCCCGCCGTAGACGGTCAAGATCGAATCTACTGTGTCCCGCCGCGCCGAGGTGGCCGGTTCGGCACTTGGGACATTGTCGACATGGCAACTTGGCGTGAAGCAGTCGATCACGAAGCGTTGCACTCCCGGGCGCCCCTGGGAAGTACGCCTTGTGTCAGTGGCCAATCCCCGTAGGGTGCGAGGGGGGCCCGAGACCCTGTCCGTGCAGGTGGAACGGGGGTTTGGGGGTGGTGAGGGGCATGGATGAGCCACGTGCGGAAGTTGGCTGAAAAGAAGCGGAA (double strand) [PadpA probe]”, the binding result is, setting by setting: (HSnH 100-200 uM) “binds more weakly”; (S8 100-200 uM) “binds more weakly”; (no sulfur compound) “binds”.

As for “GCACTCCAGTCGGTTACCCAGCCCATACCGGCGCCGTCCTCTCCCGAATCGAGGCTCCCCCACGGCGGCAGCGGCATATTCACCGCCGCCAGTTGAGGACGTTACGGAAGGTGGGCACAGCGCAACACCCCCTTCGGGCCCAATCTTGAATGGCCCGAACGGACTATGGGTAAGCGGCAGATCACCCGGGGGAGTGAGCTGGCGACATGCGCGACGATCCCGACATTCAGGTCATCTCTGTTGCGCCACAACGGACACCGATTGACACACGAGGCGGATTCGGA (double strand) [PwblA probe]”, the binding result (200 uM HSnH) was “binds more weakly”, the binding result (200 uM S8) is listed as “binds more weakly”, the binding result (1 mM HSnH) is “binds more weakly” and the binding result (1 mM S8) is “binds more weakly”.
